Results from patent US20060234242.

The chains behind the UniProt entries cited, without tags or fusion partners. Where a name states a change or a piece, a line headed by the entry shows the natural chain unless it says otherwise.
UniProt Q00438: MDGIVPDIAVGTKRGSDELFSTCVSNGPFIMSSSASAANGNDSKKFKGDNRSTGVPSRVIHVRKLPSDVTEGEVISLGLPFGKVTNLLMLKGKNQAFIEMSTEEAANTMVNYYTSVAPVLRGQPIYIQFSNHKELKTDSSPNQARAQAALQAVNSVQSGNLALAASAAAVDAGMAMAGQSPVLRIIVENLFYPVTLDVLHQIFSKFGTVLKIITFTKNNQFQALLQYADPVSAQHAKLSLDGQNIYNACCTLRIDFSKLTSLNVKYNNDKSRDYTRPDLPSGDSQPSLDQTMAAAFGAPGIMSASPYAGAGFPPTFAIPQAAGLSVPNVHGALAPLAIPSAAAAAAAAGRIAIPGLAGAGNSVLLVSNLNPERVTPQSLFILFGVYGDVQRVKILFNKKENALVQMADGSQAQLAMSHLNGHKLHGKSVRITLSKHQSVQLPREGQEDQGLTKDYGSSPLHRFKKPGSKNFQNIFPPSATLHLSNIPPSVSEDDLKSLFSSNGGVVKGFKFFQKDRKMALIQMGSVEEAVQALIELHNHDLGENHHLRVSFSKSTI
UniProt P26599: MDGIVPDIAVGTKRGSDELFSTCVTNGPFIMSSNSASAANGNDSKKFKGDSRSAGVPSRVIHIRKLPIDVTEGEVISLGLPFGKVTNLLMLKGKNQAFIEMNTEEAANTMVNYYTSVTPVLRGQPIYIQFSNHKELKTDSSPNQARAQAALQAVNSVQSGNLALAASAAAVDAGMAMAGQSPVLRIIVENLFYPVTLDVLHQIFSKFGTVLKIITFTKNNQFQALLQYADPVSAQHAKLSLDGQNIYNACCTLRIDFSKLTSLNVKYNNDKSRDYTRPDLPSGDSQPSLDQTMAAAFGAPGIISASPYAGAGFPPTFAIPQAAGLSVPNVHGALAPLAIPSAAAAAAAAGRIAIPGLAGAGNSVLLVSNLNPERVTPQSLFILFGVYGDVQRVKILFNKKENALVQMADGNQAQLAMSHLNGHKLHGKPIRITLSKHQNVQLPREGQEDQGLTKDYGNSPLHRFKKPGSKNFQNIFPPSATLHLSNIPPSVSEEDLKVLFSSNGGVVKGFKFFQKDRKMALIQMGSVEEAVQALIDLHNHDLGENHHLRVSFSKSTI

Legend:
[1] = target: PTB (polypyrimidine tract binding protein, native from INS-1 cell lysate) (UniProt Q00438); assay: pull-down; settings: protein in an extract, label: biotin
[2] = target: PTB (recombinant, GST-PTB) (Homo sapiens) (UniProt P26599); assay: pull-down; settings: recombinant PTB also evaluated (tag not stated in this paragraph); purified recombinant protein; protein details: GST (pGEX4T); label: biotin

## AGCCCTAAGTGACCAGCTACAGTCGGAAACCATCAGCAAGCAGGTCATTGTTCCAAC [preproinsulin 5'-UTR element]
[1]; 150 mM NaCl, 4 C, PTB does not bind 5'-UTR
  binding result: no binding
[2]
  binding result: no binding

## GCCCACCACUACCCUGACCACCCCUCUGCAAUGAAUAAAACCUUUGAAAGAGC [preproinsulin 3'-UTR probe (Example 8)]
[1]; 300 mM NaCl, RLB buffer, glucose (15 mM) gives acute transient increase in binding
  binding result: binds

## UGAAUACAAGCUCACGACCCACUACACAAGCUACCAGAUACAACAACAAGCAUCCACC [control RNA oligonucleotide (Example 8)]
[1]; 300 mM NaCl, RLB buffer, no binding detected
  binding result: no binding

Construct, isoform or probe ends are uncertain for at least one entry. A negative result means that nothing was seen under these conditions. For some of these results: Where cells or extracts were used, other partners may take part.
